{"sequences": {"note": "Protein sequences, listed by entry. Tags and fused reporters are not part of them. Residues count along the entry.", "UniProt O00206, residues 23-629": "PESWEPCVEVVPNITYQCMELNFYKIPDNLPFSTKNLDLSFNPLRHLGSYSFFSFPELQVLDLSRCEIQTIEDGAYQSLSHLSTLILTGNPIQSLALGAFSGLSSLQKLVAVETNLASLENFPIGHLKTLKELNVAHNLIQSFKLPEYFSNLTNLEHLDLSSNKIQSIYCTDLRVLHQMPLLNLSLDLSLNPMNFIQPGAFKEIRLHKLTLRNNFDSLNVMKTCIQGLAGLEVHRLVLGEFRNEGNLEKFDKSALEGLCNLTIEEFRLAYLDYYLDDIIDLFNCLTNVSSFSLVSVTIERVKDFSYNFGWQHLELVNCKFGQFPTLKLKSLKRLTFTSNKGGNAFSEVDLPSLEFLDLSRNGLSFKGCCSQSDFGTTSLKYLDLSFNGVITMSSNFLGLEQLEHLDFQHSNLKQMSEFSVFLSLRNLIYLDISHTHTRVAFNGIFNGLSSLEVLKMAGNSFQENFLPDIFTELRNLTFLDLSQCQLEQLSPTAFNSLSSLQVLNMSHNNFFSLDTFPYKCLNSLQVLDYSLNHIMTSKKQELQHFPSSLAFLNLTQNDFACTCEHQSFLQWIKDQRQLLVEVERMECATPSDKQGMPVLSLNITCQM"}, "source": "paper PMC9117644", "about": "(Frontiers in Bioengineering and Biotechnology, 2022)", "molecules": {"B1": {"name": "human MD-2 (S2-derived, Protein A tagged) (natural protein, UniProt Q9Y6Y9 19-160, looked up)", "chain": "QKQYWVCNSSDASISYTYCDKMQYPISINVNPCIELKRSKGLLHIFYIPRRDLKQLYFNLYITVNTMNLPKRKEVICRGSDDDYSFCRALKGETVNTTISFSFKGIKFSKGKYKCVVEAISGSPEEMLFCLEFVILHQPNSN", "notes": "human lymphocyte antigen 96 (MD-2), UniProtKB Q9Y6Y9, Q19-N160, Drosophila codon-optimized; Cloned into pExpreS2-1-CRPA (Addgene #175445): N-terminal BiP signal peptide for secretion, thrombin site and Protein A at the C-terminus; the tag was routinely left on for stability; also called lymphocyte antigen 96; source: purified (IgG Sepharose, SEC); not shown: Protein A, C-terminal, kept"}, "B2": {"name": "human MD-2 co-expressed with TLR4 in S2 cells (protein, UniProt Q9Y6Y9 19-160)", "chain": "QKQYWVCNSSDASISYTYCDKMQYPISINVNPCIELKRSKGLLHIFYIPRRDLKQLYFNLYITVNTMNLPKRKEVICRGSDDDYSFCRALKGETVNTTISFSFKGIKFSKGKYKCVVEAISGSPEEMLFCLEFVILHQPNSN"}}, "key": {"[1]": {"target": "T1, human TLR4 ectodomain (S2-derived) (human, UniProt O00206 23-629)", "T1 construct": "human toll-like receptor 4 ectodomain, UniProtKB O00206, P23-M629, Drosophila codon-optimized; Cloned into pExpreS2-1-CRPA (Addgene #175445): N-terminal BiP signal peptide for secretion, C-terminal thrombin-cleavable Protein A tag; a few residues of the thrombin site probably remain after cleavage; also called toll-like receptor 4; Drosophila-derived TLR4; source: purified (IgG Sepharose, …)", "experiment": "SEC; analytical SEC, Superdex 200 Increase 30/100 on a Dionex Ultimate 3000 UHPLC; 100-µl injections of 200 µg TLR4, 400 µg MD-2, or 200 µg TLR4 + 400 µg MD-2; A280 traces; both purified"}, "[2]": {"target": "human MD-2 (S2-derived, Protein A tagged) (human) (UniProt Q9Y6Y9)", "experiment": "SEC; analytical SEC, Superdex 200 Increase 30/100 on a Dionex Ultimate 3000 UHPLC; 100-µl injections of 200 µg TLR4, 400 µg MD-2, or 200 µg TLR4 + 400 µg MD-2; A280 traces; both purified"}, "[3]": {"target": "human TLR4 ectodomain co-expressed with MD-2 in S2 cells (human) (UniProt O00206)", "experiment": "pull-down; TLR4 and MD-2 co-expressed in S2 cells; complex purified by IgG pull-down through the Protein A tag and SEC; bands confirmed by in-gel tryptic digest MSMS"}}, "note": "These are yes or no findings as the source states them, for the method shown. For part of these data: In cells and extracts the contact can be indirect. Some binding calls cover weakened binding; strength is not graded here. For part of these data: Where a sequence is shown, tags or fusion partners need not be part of it.", "data": [{"molecule": "human TLR4 ectodomain (S2-derived) (from UniProt O00206 23-629) (domain or fragment)", "values": [{"measurement": "binding", "setting": "[1]", "result": "no binding"}]}, {"molecule": "B1", "values": [{"measurement": "binding", "setting": "[2]", "result": "binds"}]}, {"molecule": "B2", "values": [{"measurement": "binding", "setting": "[3]", "result": "binds"}]}]}
